Consider one molecule from publication PMC4598982, “Impact of Cell-surface Antigen Expression on Target Engagement and Function of an Epidermal Growth Factor Receptor × c-MET Bispecific Antibody*” (The Journal of Biological Chemistry, 2015).

The target in this experiment is c-MET(1–960) C-terminally fused to a complementary inactive fragment of β-galactosidase (UniProt P08581). As to the kind of experiment: condition: only with EGF, EGFR only Abs or BsAbs and without HGF; split reporter; PathHunter enzyme fragment complementation in the c-MET homodimer U-2 OS cell line; EGF, EGFR only Abs or BsAbs in place of HGF; 6 h at room temperature.

No constants are given. Whether binding was seen depends on the method and setting. Binding seen in cells or lysates may run through a third protein.

B1: c-MET(1–960) C-terminally fused to a complementary inactive fragment of β-galactosidase (receptor, UniProt P08581 25-960, looked up)
chain: ECKEALAKSEMNVNMKYQLPNFTAETPIQNVILHEHHIFLGATNYIYVLNEEDLQKVAEYKTGPVLEHPDCFPCQDCSSKANLSGGVWKDNINMALVVDTYYDDQLISCGSVNRGTCQRHVFPHNHTADIQSEVHCIFSPQIEEPSQCPDCVVSALGAKVLSSVKDRFINFFVGNTINSSYFPDHPLHSISVRRLKETKDGFMFLTDQSYIDVLPEFRDSYPIKYVHAFESNNFIYFLTVQRETLDAQTFHTRIIRFCSINSGLHSYMEMPLECILTEKRKKRSTKKEVFNILQAAYVSKPGAQLARQIGASLNDDILFGVFAQSKPDSAEPMDRSAMCAFPIKYVNDFFNKIVNKNNVRCLQHFYGPNHEHCFNRTLLRNSSGCEARRDEYRTEFTTALQRVDLFMGQFSEVLLTSISTFIKGDLTIANLGTSEGRFMQVVVSRSGPSTPHVNFLLDSHPVSPEVIVEHTLNQNGYTLVITGKKITKIPLNGLGCRHFQSCSQCLSAPPFVQCGWCHDKCVRSEECLSGTWTQQICLPAIYKVFPNSAPLEGGTRLTICGWDFGFRRNNKFDLKKTRVLLGNESCTLTLSESTMNTLKCTVGPAMNKHFNMSIIISNGHGTTQYSTFSYVDPVITSISPKYGPMAGGTLLTLTGNYLNSGNSRHISIGGKTCTLKSVSNSILECYTPAQTISTEFAVKLKIDLANRETSIFSYREDPIVYEIHPTKSFISGGSTITGVGKNLNSVSVPRMVINVHEAGRNFTVACQHRSNSEIICCTTPSLQQLNLQLPLKTKAFFMLDGILSKYFDLIYVHNPVFKPFEKPVMISMGNENVLEIKGNDIDPEAVKGEVLKVGNKSCENIHLHSEAVLCTVPNDLLKLNSELNIEWKQAISSTVLGKVIVQPDQNFTGLIAGVVSISTALLLLLGFFLWLKKRKQ
notes: signal peptide in the construct; membrane localisation of the construct was checked by flow cytometry; In the homodimer cell line two copies carry the two complementary β-gal fragments; also called hepatocyte growth factor receptor; HGF receptor; source: U-2 OS cells, stably transfected, on cells
Consider B1, for which the binding result was “no binding”.
